In PubChem BioAssay AID1671190 (National Center for Advancing Translational Sciences (NCATS), 2021):
“And” between values parts separate entries of the source, which are not always exact repeats. Equal entries are not always repeated. Screen size: about 580,000 compounds; about 6,100 (1.1%) were called active. The inconclusive results got no clear call from the source; some entries with a clear call stand among them for comparison. Calls follow the shape of the dose curve; as a rule, active = well fitted inhibition curve with a large enough effect; inconclusive = small, poorly fitted or top-dose-only effect, or another doubt; inactive = no such curve, though single readings can be large or run the other way. Potencies of inconclusive entries are doubtful fits and often do not repeat.

The chains behind the UniProt entries cited, without tags or fusion partners. Where a name states a change or a piece, a line headed by the entry shows the natural chain unless it says otherwise.
UniProt P18054: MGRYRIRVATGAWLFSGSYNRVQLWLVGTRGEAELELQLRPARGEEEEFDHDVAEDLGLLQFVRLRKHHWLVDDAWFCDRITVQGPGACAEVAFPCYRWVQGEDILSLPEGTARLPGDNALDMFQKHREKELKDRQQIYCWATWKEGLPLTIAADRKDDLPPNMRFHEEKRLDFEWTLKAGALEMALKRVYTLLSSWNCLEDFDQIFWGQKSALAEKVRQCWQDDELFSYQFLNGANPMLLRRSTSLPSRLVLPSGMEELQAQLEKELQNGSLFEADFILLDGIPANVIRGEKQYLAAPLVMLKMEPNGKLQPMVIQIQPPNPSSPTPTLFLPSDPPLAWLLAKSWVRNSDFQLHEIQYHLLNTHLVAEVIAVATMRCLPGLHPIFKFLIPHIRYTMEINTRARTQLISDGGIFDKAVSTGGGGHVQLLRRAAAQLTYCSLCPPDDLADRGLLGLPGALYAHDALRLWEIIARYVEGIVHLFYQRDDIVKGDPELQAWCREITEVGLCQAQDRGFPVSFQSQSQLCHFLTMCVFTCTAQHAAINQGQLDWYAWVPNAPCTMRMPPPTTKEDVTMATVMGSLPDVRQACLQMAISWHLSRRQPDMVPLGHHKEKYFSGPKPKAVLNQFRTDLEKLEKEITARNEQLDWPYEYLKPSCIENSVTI

Molecular target: Polyunsaturated fatty acid lipoxygenase ALOX12 (Homo sapiens) (UniProt P18054)
Assay: Primary qHTS assay for inhibitors of human arachidonate 12S-lipoxygenase (ALOX12): Round 2
Settings: purified 12hLO, xylenol orange hydroperoxide absorbance; activity change, negative = inhibition: at 108 µM (top of the series) unless noted
In short: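 Purified human 12hLO (150 nM final) in 25 mM Hepes, 0.01% Triton X-100, pH 7.0 was preincubated 15 min at room temperature with compound. Then 40 uM arachidonic acid was added, 30 min. Hydroperoxide was read by Fe-XO absorbance ratio 573/405 nm.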
% is scaled to controls: 0 for no effect and ±100 for the full control effect; potency is read from the fitted curve at half-maximal effect.

Structure (SMILES)	Potency	activity change, negative = inhibition
CCC(=O)c1cn(CC(=O)Nc2ccc(C)cc2)c2ccccc12	inconclusive: 0.316 µM [inhibitor, full curve, poor fit]	–
O=S(=O)(c1ccccc1)N1CCC2(CCN(c3ccncc3)CC2)CC1	inactive	–
O=C(CC1CCCCC1)N1CC(CO)C2(CCNCC2)C1 (centres undefined)	inconclusive: 8.91 µM [inhibitor, partial curve, poor fit]	–
CC(C)(C)c1cc(C(=O)CCN2CCOCC2)cc(C(C)(C)C)c1O	inconclusive: 44.7 µM [inhibitor, partial curve, poor fit]	–
S=C1NCN(Cc2ccco2)CN1	inconclusive: 44.7 µM [inhibitor, partial curve, poor fit]	–
Cc1ccccc1CN(C)CC(=O)Nc1ccccc1Oc1ccccc1	inconclusive: 4.47 µM [inhibitor, full curve, poor fit]	–
CCCNC(=O)c1ccccc1NS(=O)(=O)c1ccc(OC)c(OC)c1	inactive	–
O=c1[nH]c(=O)c2nc3c4ccccc4c4ccccc4c3nc2[nH]1	inactive	–
Oc1ccc(-c2nc3cc(C(F)(F)F)ccc3s2)cc1	inconclusive: 79.4 µM [inhibitor, partial curve, poor fit]	–
Cc1ccc(N/C=C(/C#N)c2ccsc2)cc1C	inconclusive: 89.1 µM [inhibitor, single point]	–
COc1ccc(-n2nnnc2C2c3ccccc3C(=O)N2C2CCN(Cc3ccccc3)CC2)cc1 (centres undefined)	inactive	–
CC(=O)Nc1cccc(-c2ccnc3c2CC(C)(C(=O)Nc2ccc(Cl)c(C(F)(F)F)c2)O3)c1 (centres undefined)	inactive	–
Cc1nn(CCC(=O)Nc2cccc(F)c2)c(=O)c(C#N)c1C	inactive	–
CC(=O)Nc1cc(-c2ccc(C(=O)NC3CC3)cc2)cn2c(-c3cccc(C(C)=O)c3)cnc12	inconclusive: 2.24 µM [inhibitor, full curve, poor fit]	–
COc1ccc(CCNC(=O)CNCC2CCCCC2)cc1OC	inconclusive: 1.58 µM [inhibitor, partial curve, poor fit]	–
Cc1cc(Br)c2nc(-c3ccc(Cl)cc3)c(Cc3cccc(Cl)c3)n2c1	inconclusive: 50.1 µM [inhibitor, partial curve, poor fit]	–
COC(=O)[C@]1(CC(C)C)NC=C(C(=O)c2ccccc2)[C@@H]1c1cccs1	inconclusive: 12.6 µM [inhibitor, full curve, poor fit]	–
O=C(CSc1ccc2c(c1)OCCCO2)NC(=O)c1cccs1	inactive	–
Cc1cc2c(=O)cc(C(=O)N(Cc3cccs3)c3ccccn3)oc2cc1Cl	inconclusive: 50.1 µM [inhibitor, partial curve, poor fit]	–
CCOc1cc(/C=C(\C#N)C(N)=O)ccc1OS(=O)(=O)c1ccccc1	inconclusive: 12.6 µM [inhibitor, full curve, poor fit]	–
COc1ccc2c(C)c(CC(=O)NCc3ccc(C)cc3)c(=O)oc2c1	inactive	–
FC(F)(F)c1cnc(NNC(=S)Nc2ccccc2Cl)c(Cl)c1	inconclusive: 44.7 µM [inhibitor, partial curve, poor fit]	–

Structure (SMILES)	Potency	activity change, negative = inhibition
COCc1c(C(=O)OCC(=O)NCCN2C(=O)CSC2=O)oc2ccccc12	inconclusive: 11.2 µM [inhibitor, full curve, poor fit]	–
CCOC(=O)c1nc(N2CCN(C(=O)OCC)CC2)c2c3c(sc2n1)CCCC3	inactive	–
CCCN(CC1CC1)c1nc(C)nc(Nc2c(Cl)cc(Cl)cc2Cl)c1Cl	inactive and inconclusive: 35.5 µM [inhibitor, single point]	–
C/C(CC1CC(COCC(C)C)OC1=O)=N\Nc1nc(-c2ccccc2)cs1 (centres undefined)	inconclusive: 44.7 µM [inhibitor, partial curve]	–
CC(C)(C)C(=O)NC(=S)Nc1ccccc1F	inconclusive: 44.7 µM [inhibitor, partial curve, poor fit]	–
Cn1c(=O)c2c(nc(Oc3ccccc3F)n2Cc2ccccc2F)n(C)c1=O	inconclusive: 6.31 µM [inhibitor, full curve, poor fit]	–
Cc1nn(CC(=O)Nc2cc(F)ccc2F)c(=O)c2cccn12	inconclusive: 158 µM [inhibitor, partial curve, poor fit]	–
CCc1cc2c(=O)c(-c3nc4ccccc4n3C)coc2c(CN2CCCCC2C)c1O (centres undefined)	inactive	–
Cc1ccc(CNC[C@H]2O[C@H](Cc3cc(-c4ccc(F)cc4)on3)CC[C@@H]2O)cc1	inconclusive: 22.4 µM [inhibitor, full curve, poor fit]	–
O=C1NC(=NC2CCCCC2)C2(CCCN(CC3CC3)C2)N1c1cc(F)cc(F)c1 (centres undefined)	–	inactive: 4.43% [at 6.33 µM]
COc1ccc(CNCc2cc(C)c(OC)cc2C)c(OC)c1	inconclusive: 5.01 µM [inhibitor, full curve, poor fit]	–
O=C(N/N=C\c1cc(Br)c(Br)o1)c1cncc(Br)c1	inactive	–
CN(Cc1ccccc1F)c1cc2c(c3c1ccn3C)C1CCC2O1 (centres undefined)	inconclusive: 79.4 µM [inhibitor, partial curve, poor fit]	–
Cc1ccc(C(=O)N2CCCN(c3cc(-c4ccc(C)c(C)c4)[nH]n3)CC2)cc1C	inactive	–
O=S(=O)(NC1c2ccccc2Oc2ccccc21)c1cccs1	inactive	–
O=C(NCc1ccc2c(c1)CCN2C(=O)c1ccc(F)cc1)c1ccco1	inconclusive: 6.31 µM [inhibitor, full curve, poor fit]	–
COc1ccc(C(=O)Nc2ccc3oc(-c4ccccc4)cc(=O)c3c2)cc1	inconclusive: 100 µM [inhibitor, single point]	–
CCCCC(=O)NC1(C(F)(F)F)C(=O)Nc2c1c(=O)[nH]c(=O)n2Cc1ccco1 (centres undefined)	inconclusive: 44.7 µM [inhibitor, partial curve, poor fit]	–
CCN(CC)CCNC(=O)c1sc2ncn(CC(=O)Nc3ccc(C)c(Cl)c3)c(=O)c2c1C	inconclusive: 39.8 µM [inhibitor, partial curve, poor fit]	–
Nc1nc(SCc2nc3sc4c(c3c(=O)[nH]2)CCCC4)n[nH]1	inconclusive: 8.91 µM [inhibitor, partial curve, poor fit]	–
COc1cc(/C=C(\C#N)C(=O)Nc2ccc(SC(F)F)cc2)cc(OC)c1OC	inconclusive: 28.2 µM [inhibitor, partial curve]	–
CSc1ccccc1NC(=O)c1cc2ncc(Br)cn2n1	inactive	–

An excerpt from above in order of SMILES length, low to high.
Structure (SMILES)	Potency	activity change, negative = inhibition
CCCNC(=O)c1ccccc1NS(=O)(=O)c1ccc(OC)c(OC)c1	inactive	–
COc1ccc(C(=O)Nc2ccc3oc(-c4ccccc4)cc(=O)c3c2)cc1	inconclusive: 100 µM [inhibitor, single point]	–
Cc1cc(Br)c2nc(-c3ccc(Cl)cc3)c(Cc3cccc(Cl)c3)n2c1	inconclusive: 50.1 µM [inhibitor, partial curve, poor fit]	–

Remaining list, next part

Structure (SMILES)	Potency	activity change, negative = inhibition
CCOc1ccc(C(=O)N[C@H](C(=O)Nc2ccc(S(=O)(=O)Nc3nccs3)cc2)C(C)C)cc1	inconclusive: 44.7 µM [inhibitor, partial curve, poor fit]	–
Cc1nc2c(cnn2C(C)C)cc1C(=O)N(C)Cc1ccccc1F	inactive	–
CC(C)S(=O)(=O)CC(=O)O	inconclusive: 14.1 µM [inhibitor, partial curve, poor fit]	–
COc1cc(-c2c(NC(=O)c3ccc(C)cc3)oc3ccccc3c2=O)cc(OC)c1OC	inconclusive: 0.251 µM [inhibitor, full curve, poor fit]	–
COc1ccc(OC)c(C2CC(=O)Nc3c(C(=O)O)cn(-c4ccc(F)cc4)c32)c1 (centres undefined)	inconclusive: 20 µM [inhibitor, partial curve]	–
CN1CCN(C(=O)C2=C[C@H](c3ccc4c(c3)OCO4)C[C@H](OCCCCO)O2)CC1	–	inconclusive: -33.7% [inhibitor]
Cc1nnc(NC(=O)CSc2nc(N)c(NC(=O)c3cccs3)c(=O)[nH]2)s1	inconclusive: 50.1 µM [inhibitor, partial curve, poor fit]	–
CC(=O)Nc1ccc(NC(=O)CCn2c(=S)oc3ccccc32)cc1	inconclusive: 50.1 µM [inhibitor, partial curve, poor fit]	–
CCCNc1cc(N2CCC(CCC(=O)Nc3cccc(C)c3)CC2)ncn1	inconclusive: 39.8 µM [inhibitor, full curve, poor fit]	–
Cc1nn(CC(=O)Nc2ccc(N3CCOCC3)cc2)c(C)c1Br	inconclusive: 70.8 µM [inhibitor, partial curve, poor fit]	–
CC(NC(=O)c1[nH]c2ccccc2c1Cl)c1cccc(F)c1 (centres undefined)	inactive	–
N#Cc1ccc(CSc2nnc(NC(=O)c3ccc4ncsc4c3)s2)cc1	inconclusive: 44.7 µM [inhibitor, partial curve]	–
CCc1ccccc1N(C)S(=O)(=O)c1ccc(-c2cc(C)no2)s1	inactive	–
O=C([C@@H]1C[C@H](Oc2ccccc2)CN1C(=O)c1cc2ccccc2[nH]1)N1CCOCC1	inconclusive: 89.1 µM [inhibitor, single point]	–
CCC(NC(=O)Nc1cc(OC)ccc1OC)c1c(-n2cccc2)sc2c1CCN(CC)C2 (centres undefined)	inconclusive: 7.94 µM [inhibitor, full curve, poor fit]	–
C(=N\Nc1ncnc2sc3c(c12)CCC3)/c1cccs1	inconclusive: 44.7 µM [inhibitor, partial curve, poor fit]	–
CCOC(=O)[C@H]1O[C@H]1C(=O)N[C@@H](CC(C)C)C(=O)NCCC(C)C	inconclusive: 7.69 µM [inhibitor, partial curve, poor fit]	–
Cc1cccc(C)c1NS(=O)(=O)c1ccc(NS(=O)(=O)c2ccc3c(c2)OCCO3)cc1	inconclusive: 7.94 µM [inhibitor, full curve, poor fit]	–
CC1C(c2ccc(F)cc2)=[N+]([O-])C(C)(c2ccc(Br)cc2)N1O (centres undefined)	inactive	–
C=Cc1ccc(COc2ccc3oc(-c4ccccc4)c(C(=O)OCC)c3c2)cc1	inconclusive: 3.55 µM [inhibitor, full curve]	–
